No constants are given. Whether binding was seen depends on the method and setting. Binding seen in cells or lysates may run through a third protein. Some binding calls cover weakened binding; strength is not graded here. Tags and fused reporters may be left off the sequences shown.
Columns and labels:
RCP of NIH3T3 cells [1] = target: RCP of NIH3T3 cells (UniProt O35427); assay: co-immunoprecipitation
RCP of NIH3T3 cells [2] = target: RCP of NIH3T3 cells (UniProt O35427); assay: co-immunoprecipitation from NIH3T3 cells (GFP immunoprecipitation, anti-RCP blot)

By UniProt entry, the sequences of proteins in these tests, tags left out.
UniProt O35427: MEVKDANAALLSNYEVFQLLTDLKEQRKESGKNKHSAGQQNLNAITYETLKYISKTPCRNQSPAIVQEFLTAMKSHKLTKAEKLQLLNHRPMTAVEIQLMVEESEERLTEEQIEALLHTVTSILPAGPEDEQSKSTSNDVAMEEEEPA

LIVVAVFAEKQHLMWYYFLGWGFPLIPACIH (peptide, not shown: large carriers)
binding (RCP of NIH3T3 cells [1]): binds | binding (RCP of NIH3T3 cells [2]): binds
